# The whole screen tested about 300,000 compounds, of which about 3,700 (1.2%) were called active. Inconclusive means that the source gave no clear call. Such entries were picked first, then a sample of the others. Calls follow the shape of the full dose curve; tested in HEK293 cells. Where the call is inconclusive, the potency comes from a doubtful curve fit.
# Assay: qHTS for Inhibitors of binding or entry into cells for Lassa Virus; also: nearly all actives have a fitted effect of over 50% in size
# Conditions: Lassa virus pseudotype entry inhibition, cell reporter; activity change, negative = inhibition: at 37.9 µM (top of the series) unless noted
# % is scaled to controls: 0 for no effect and ±100 for the full control effect; potency is read from the fitted curve at half-maximal effect.
Structure (SMILES),"activity change, negative = inhibition",Potency
Cc1cc(C)n(-c2ncccc2[N+](=O)[O-])n1,inactive: -3.25%,
CC1CCN(C(=O)COC(=O)C2CCN(S(=O)(=O)c3ccc(Cl)c(C(F)(F)F)c3)CC2)CC1,inactive: 13.1%,
Cc1ccc(NC(=O)Cn2c(=O)n(CCCCC(=O)NCc3ccccc3Cl)c(=O)c3ccccc32)cc1,inactive: 7.98% [at 46.1 µM],
CCCCN1C(=O)/C(=C2/C=CC=CN2C)SC1=S,,"inconclusive: 4.61 µM [activator, full curve, poor fit]"
Cc1ccc(C)c(CN2C(=O)c3ccccc3S(=O)c3ccc(C(=O)N4CCN(c5cccc(Cl)c5)CC4)cc32)c1 (stereo unspecified),,"inconclusive: 10 µM [inhibitor, single point]"
COc1ccc2c(c1)NP(=S)(Oc1ccccc1)N2 (stereo unspecified),,"inconclusive: 3.16 µM [activator, partial curve, poor fit]"
Cn1ncc([N+](=O)[O-])c1C(=O)Nc1ccc(-c2nc3ccccc3[nH]2)cc1,,"inconclusive: 5.17 µM [activator, single point]"
CC(=O)N(c1ccc2oc(=O)sc2c1)S(=O)(=O)c1ccccc1,inactive: -8.07%,
CCN1CCN(CCCNC(=O)c2ccc3c(Cl)c4c(nc3c2)CCCC4)CC1,,"inconclusive: 11.2 µM [inhibitor, partial curve, poor fit]"
O=C(NC1CCCC1)c1ccc(S(=O)(=O)N2CCOCC2)cc1,,"inconclusive: 25.9 µM [inhibitor, partial curve, poor fit]"
O=c1cc(-c2ccccc2)n2c(SCc3c(F)cccc3Cl)nnc2[nH]1,inactive: 1.48% [at 46.1 µM],
N#C/C(=C(/O)CCl)c1nc2ccccc2[nH]1,,"inconclusive: 31.6 µM [inhibitor, single point]"
CC(C)(C)C(=O)Nc1sc2c(c1C#N)CCC2,inactive: 5.24%,
c1ccc(Nc2nc(-c3cccs3)cs2)nc1,,"inconclusive: 7.94 µM [inhibitor, partial curve, poor fit]"
CCOc1ccc(NC(=O)c2ccco2)c([N+](=O)[O-])c1,,"inconclusive: 8.91 µM [inhibitor, partial curve, poor fit]"
Cn1cnnc1SCC(=O)Nc1cccc(S(=O)(=O)N2CCCCCC2)c1,inactive: 13.7%,
Cc1cc(C(=O)Nc2cc(C)n(Cc3ccc(Cl)cc3)n2)no1,inactive: -17%,
COC(=O)N1[C@H](Cc2ccccc2)C=C[C@]1(C)C(=O)NCc1ccccn1,,"inconclusive: 1.3 µM [inhibitor, full curve, poor fit]"
COc1ccc(/C=C/C(=O)Nc2cc(S(=O)(=O)N3CCOCC3)ccc2OC)cc1,,"inconclusive: 25.1 µM [inhibitor, single point]"
CCOc1ccc(NC(=S)NNC(=O)c2cc(Br)ccc2Cl)cc1,inactive: 15.6%,
CCOC(=O)c1cnc2nc(NCc3cccc(Br)c3)[nH]n2c1=O,inactive: -0.826% [at 46.1 µM],
Nc1c(C(=O)Nc2ccc(S(=O)(=O)N3CCCC3)cc2)sc2nc3ccc(OC(F)(F)F)cc3cc12,,"inconclusive: 11.2 µM [inhibitor, partial curve, poor fit]"

# Compounds above with bromine:
Structure (SMILES),"activity change, negative = inhibition",Potency
CCOc1ccc(NC(=S)NNC(=O)c2cc(Br)ccc2Cl)cc1,inactive: 15.6%,
CCOC(=O)c1cnc2nc(NCc3cccc(Br)c3)[nH]n2c1=O,inactive: -0.826% [at 46.1 µM],

# (continued)

Structure (SMILES),"activity change, negative = inhibition",Potency
CCOC(=O)C1(CCc2ccccc2)CCN(Cc2cccc3c2OCO3)CC1,,"inconclusive: 12.6 µM [inhibitor, partial curve, poor fit]"
Cc1cccc(NC(=O)COC(=O)c2cccc3c2C(=O)c2ccccc2C3=O)c1C,,"inconclusive: 35.5 µM [inhibitor, single point]"
COc1ccc(-c2noc(C3CCCN(C(=O)c4ccc(C)cc4)C3)n2)cc1 (stereo unspecified),,"inconclusive: 35.5 µM [inhibitor, single point]"
CSc1ccc(C2(O)Cc3cccc[n+]3C2c2ccccc2)cc1 (stereo unspecified),,"inconclusive: 11.2 µM [activator, partial curve, poor fit]"
CCS(=O)(=O)c1ccc2oc(Nc3ccccc3C)nc2c1,,"inconclusive: 12.6 µM [activator, partial curve]"
COc1ccc(/C(C)=N/NC(=S)NCCc2ccccc2)c(O)c1,,"inconclusive: 7.94 µM [inhibitor, partial curve]"
Nc1nonc1NC(=O)NN=C1CCCCC1,inactive: 5.08%,
COc1ccc(CNC(=O)c2ccc3c(c2)N(Cc2ccc(C)cc2)CCS3)cc1,,"inconclusive: 5.62 µM [inhibitor, full curve, poor fit]"
Cc1ccccc1C(=O)Nc1ccc2nc(SCC(=O)N3CCc4ccccc43)sc2c1,,"inconclusive: 35.5 µM [inhibitor, single point]"
Cc1ccc(N2CC(NC(=O)c3cc4ccccc4o3)CC2=O)cc1C (stereo unspecified),inactive: 3.25% [at 46.1 µM],
O=C(c1cc(-c2cccs2)nc2ccccc12)N1CCN(c2ccccc2)CC1,,"inconclusive: 35.5 µM [inhibitor, single point]"
O=C(C1CCN(S(=O)(=O)c2cccc3cccnc23)CC1)N1CCc2ccccc21,,"inconclusive: 20.6 µM [inhibitor, partial curve, poor fit]"
CC12CC[C@H]3[C@@H](CCC4(O)C[C@H](O)CCC34/C=N/NC(=O)c3ccccc3[N+](=O)[O-])C1(O)CCC2C1=CC(=O)OC1 (stereo partly specified),,"inconclusive: 1.78 µM [inhibitor, full curve, poor fit]"
Cc1ccc(Cl)cc1NC(=O)c1cc(NC(=O)C2CCCCC2C(=O)O)ccc1N1CCOCC1 (stereo unspecified),,active: 10 µM
Cn1c(CCNS(=O)(=O)c2ccccc2)nnc1SCc1cccnc1,inactive: 18.5% [at 46.1 µM],
CCc1ccc(C2=NN(CCC(=O)NCCc3ccc(OC)c(OC)c3)C(=O)CC2)cc1,,"inconclusive: 15.8 µM [inhibitor, single point]"
CCCOc1ccc(-c2nonc2NC(=O)c2cc(OC)c(OC)c(OC)c2)cc1OCCC,inactive: -20.5% [at 46.1 µM],
Cc1ccc2nsnc2c1S(=O)(=O)N(Cc1ccco1)Cc1cc2ccc(C)c(C)c2[nH]c1=O,,"inconclusive: 5.01 µM [inhibitor, single point]"
COCCNC(=O)c1c[nH]c2ccc(S(=O)(=O)Nc3ccc(F)cc3F)cc2c1=O,inactive: 17.5% [at 46.1 µM],
CCn1c(C)cc(C(=O)COC(=O)c2ccccc2[N+](=O)[O-])c1C,,active: 0.316 µM
CCCn1c(SCC(=O)Nc2ccccc2N2CCCCC2)nc2c1c(=O)n(C)c(=O)n2C,,"inconclusive: 29.1 µM [inhibitor, single point]"
Cn1ccc2c(OCC(=O)NCc3ccccc3)cccc2c1=O,,"inconclusive: 7.08 µM [inhibitor, partial curve, poor fit]"

Structure (SMILES),"activity change, negative = inhibition",Potency
Cn1cccc1P(=O)(c1cccn1C)c1cccn1C,,"inconclusive: 4.61 µM [activator, full curve, poor fit]"
COc1ccccc1CNS(=O)(=O)c1ccc(-c2cnc(C3CC3)o2)cc1,,"inconclusive: 22.4 µM [inhibitor, partial curve, poor fit]"
Cc1ccc(Cn2ncc3c(N4CCN(Cc5ccc(Cl)cc5)CC4)ncnc32)cc1,,"inconclusive: 11.2 µM [inhibitor, partial curve, poor fit]"
Cc1ccc(C)c(/C=N/NC(=S)NCCc2ccccc2)c1,,"inconclusive: 35.5 µM [inhibitor, partial curve, poor fit]"
COc1ccnc(Oc2ccccc2)c1C(=O)N/C=N/OCc1ccc(F)cc1Cl,,"inconclusive: 9.2 µM [inhibitor, partial curve, poor fit]"
COc1cccc(N2CC(C(=O)N3CCC4(CC3)CC(=O)c3ccccc3O4)CC2=O)c1 (stereo unspecified),,"inconclusive: 14.1 µM [inhibitor, partial curve, poor fit]"
Cc1oc(-c2ccc(C(=O)NCCC(C)C)cc2)nc1CN1CCc2ccccc21,,"inconclusive: 10 µM [inhibitor, partial curve, poor fit]"
CCc1ccc(NS(=O)(=O)c2cc(-c3cnc(C4CC4)o3)ccc2C)cc1,,"inconclusive: 25.1 µM [inhibitor, single point]"
CNC(=S)NNC(=O)c1sc(-c2cc(C)on2)nc1C,inactive: -16.6%,
O=C(NCC1CCCO1)c1ccc2ccccc2n1 (stereo unspecified),,"inconclusive: 0.0891 µM [inhibitor, full curve, poor fit]"
O=C(NCc1cccs1)c1cccc(N2CCCC2=O)c1,inactive: 7.02%,
Cc1ccc(CNC(=O)C2COc3ccccc3C2)cc1 (stereo unspecified),inactive: 9.01% [at 46.1 µM],
CCN1CCN(c2cc(C(C)C)nc3c(-c4ccccc4)c(C)nn23)CC1,,"inconclusive: 12.6 µM [inhibitor, single point]"
COc1ccc(-c2ccnc(-c3ccc(O)cc3)n2)cc1,,"inconclusive: 2.51 µM [inhibitor, partial curve, poor fit]"
COc1ccc(/C=N/Nc2ccc(C(=O)O)cc2)c(OC)c1OC,,"inconclusive: 7.08 µM [activator, partial curve, poor fit]"
Cc1cc(Br)ccc1NC(=O)c1ccco1,,"inconclusive: 8.91 µM [activator, partial curve, poor fit]"
COc1ccccc1Cn1c(/C=C/c2ccccc2)nc2ccccc21,,"inconclusive: 11.2 µM [inhibitor, partial curve, poor fit]"
Cc1cc2c(c(=O)n1Cc1cccnc1)C(c1cccs1)C(C#N)=C(N)O2 (stereo unspecified),inactive: -13.2%,
COc1cc(CC2C(=O)Nc3ccccc32)cc(C)c1O (stereo unspecified),,"inconclusive: 1 µM [inhibitor, full curve, poor fit]"
CC1=C(C(=O)OC(C)C)C(c2cccs2)N2C(=O)CCSC2=N1 (stereo unspecified),,"inconclusive: 29.1 µM [inhibitor, single point]"
O=C(COC(=O)c1ccccc1)NCCC1=CCCCC1,,"inconclusive: 5.62 µM [inhibitor, single point]"
O=C(CCC1CCCN(Cc2ccc(O)c(Cl)c2)C1)NCc1ccccc1F (stereo unspecified),,"inconclusive: 0.891 µM [inhibitor, single point]"
